Values from PubChem BioAssay AID504791 (Drosophila RNAi Screening Center, 2011).
Test: 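Genes of the fly required for silencing by miRNA, siRNA or endo-siRNA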 (primary screen). Cells: Drosophila S2-derived reporter cells. Knock-down reagent: long dsRNA against Drosophila genes, about 150-250 ng dsRNA per well (siRNA assay); about 80-120 ng (miRNA assay). Timing: about 5 days (siRNA assay); about 4 days (miRNA assay). Challenge: copper sulfate induction of reporters: 25 µM (siRNA assay); 200 mM stated (miRNA assay), 1-2 days before reading. Measured: 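Dual luciferase assay: Renilla to firefly signal ratio in each well, scaled to the mean ratio of its plate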. Units: stable assay Renilla, run 1 in luminescence; stable assay firefly, run 1 in luminescence. Active means: 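a well was a first-pass pick when its plate-scaled ratio rose above 1.5 (siRNA assay) or 1.6 (miRNA assay), or dropped below 0.6; a gene counted only if two separate dsRNAs agreed on retest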.
In all, the deposit lists about 23,000 reagents; shown is an unselected part of those that have a named target and a result. Over the whole deposit, 199 (0.86%) are marked active. 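Plate-scaled ratios behind the calls are not deposited; printed light signals are raw; many rows marked increased or decreased are still called inactive.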 Not given: the direction of the score.

CG13032 (GeneID 39863) [DRSC09912]: stable assay Renilla, run 1 = 7543; stable assay firefly, run 1 = 3.46e5; outcome = inactive
Gp210 (GeneID 35512) [DRSC04861]: stable assay Renilla, run 1 = 6915; stable assay firefly, run 1 = 4.55e5; outcome = inactive
Gp210 (GeneID 35512) [DRSC04900]: stable assay Renilla, run 1 = 16455; stable assay firefly, run 1 = 1.07e6; outcome = inactive
CG13428 (GeneID 37317) [DRSC06390]: stable assay Renilla, run 1 = 7190; stable assay firefly, run 1 = 4.00e5; outcome = inactive
CG15117 (GeneID 37197) [DRSC06539]: stable assay Renilla, run 1 = 10950; stable assay firefly, run 1 = 5.40e5; outcome = inactive
spn-A (GeneID 43577) [DRSC16812]: stable assay Renilla, run 1 = 6516; stable assay firefly, run 1 = 5.21e5; outcome = inactive
CG11655 (GeneID 32472) [DRSC19413]: stable assay Renilla, run 1 = 5475; stable assay firefly, run 1 = 4.98e5; outcome = inactive
Spase22-23 (GeneID 42885) [DRSC15857]: stable assay Renilla, run 1 = 7014; stable assay firefly, run 1 = 3.45e5; outcome = inactive
CG14330 (GeneID 42102) [DRSC14809]: stable assay Renilla, run 1 = 6852; stable assay firefly, run 1 = 4.29e5; outcome = inactive
melt (GeneID 38785) [DRSC11367]: stable assay Renilla, run 1 = 5892; stable assay firefly, run 1 = 4.47e5; outcome = inactive
CaMKII (GeneID 43828) [DRSC17214]: stable assay Renilla, run 1 = 6814; stable assay firefly, run 1 = 3.46e5; outcome = inactive
Yod1 (GeneID 38603) [DRSC10433]: stable assay Renilla, run 1 = 7755; stable assay firefly, run 1 = 4.04e5; outcome = inactive
Klp59D (GeneID 37674) [DRSC04118]: stable assay Renilla, run 1 = 4754; stable assay firefly, run 1 = 2.98e5; outcome = inactive
CG5111 (GeneID 43085) [DRSC15717]: stable assay Renilla, run 1 = 6339; stable assay firefly, run 1 = 3.41e5; outcome = inactive
Tep5Psi (GeneID 35250) [DRSC02183]: stable assay Renilla, run 1 = 7256; stable assay firefly, run 1 = 3.51e5; outcome = inactive
Tep5Psi (GeneID 35250) [DRSC02184]: stable assay Renilla, run 1 = 6104; stable assay firefly, run 1 = 3.58e5; outcome = inactive
trsn (GeneID 36110) [DRSC06078]: stable assay Renilla, run 1 = 6852; stable assay firefly, run 1 = 4.25e5; outcome = inactive
CG3339 (GeneID 43295) [DRSC13821]: stable assay Renilla, run 1 = 4471; stable assay firefly, run 1 = 3.54e5; outcome = inactive
CG3339 (GeneID 43295) [DRSC15479]: stable assay Renilla, run 1 = 6531; stable assay firefly, run 1 = 3.91e5; outcome = inactive
CG5510 (GeneID 42872) [DRSC15823]: stable assay Renilla, run 1 = 6798; stable assay firefly, run 1 = 3.56e5; outcome = inactive
kay (GeneID 3772082) [DRSC13962]: stable assay Renilla, run 1 = 6304; stable assay firefly, run 1 = 4.14e5; outcome = inactive
kay (GeneID 3772082) [DRSC15048]: stable assay Renilla, run 1 = 5063; stable assay firefly, run 1 = 2.19e5; outcome = inactive
kay (GeneID 3772082) [DRSC16977]: stable siRNA reporter change = reporter ratio raised past the hit cutoff; stable assay Renilla, run 1 = 9019; stable assay firefly, run 1 = 3.14e5; outcome = active
CG32462 (GeneID 318043) [DRSC11851]: stable assay Renilla, run 1 = 8416; stable assay firefly, run 1 = 3.13e5; outcome = inactive
Arpc4 (GeneID 33864) [DRSC02917]: stable assay Renilla, run 1 = 7715; stable assay firefly, run 1 = 4.41e5; outcome = inactive
Osi16 (GeneID 318801) [DRSC12135]: stable assay Renilla, run 1 = 6775; stable assay firefly, run 1 = 4.18e5; outcome = inactive
Osi16 (GeneID 318801) [DRSC21323]: stable assay Renilla, run 1 = 10202; stable assay firefly, run 1 = 7.01e5; outcome = inactive
Tbc1d22 (GeneID 42498) [DRSC15867]: stable assay Renilla, run 1 = 7859; stable assay firefly, run 1 = 2.51e5; outcome = inactive

Individual results from above:
CG11655 (GeneID 32472) [DRSC19413], outcome: inactive
Value for kay (GeneID 3772082) [DRSC15048] in “stable assay firefly, run 1”: 2.19e5
Result for Gp210 (GeneID 35512) [DRSC04861] in “outcome”: inactive
